This passage reports log2 fold change results from the supplement of paper PMC12819154, “High-throughput peptide-centric local stability assay extends protein–ligand identification to membrane proteins, tissues and bacteria” (Nature Structural & Molecular Biology, 2025).

The chains behind the UniProt entries cited, without tags or fusion partners. Where a name states a change or a piece, a line headed by the entry shows the natural chain unless it says otherwise.
UniProt Q5SV80, whole entry: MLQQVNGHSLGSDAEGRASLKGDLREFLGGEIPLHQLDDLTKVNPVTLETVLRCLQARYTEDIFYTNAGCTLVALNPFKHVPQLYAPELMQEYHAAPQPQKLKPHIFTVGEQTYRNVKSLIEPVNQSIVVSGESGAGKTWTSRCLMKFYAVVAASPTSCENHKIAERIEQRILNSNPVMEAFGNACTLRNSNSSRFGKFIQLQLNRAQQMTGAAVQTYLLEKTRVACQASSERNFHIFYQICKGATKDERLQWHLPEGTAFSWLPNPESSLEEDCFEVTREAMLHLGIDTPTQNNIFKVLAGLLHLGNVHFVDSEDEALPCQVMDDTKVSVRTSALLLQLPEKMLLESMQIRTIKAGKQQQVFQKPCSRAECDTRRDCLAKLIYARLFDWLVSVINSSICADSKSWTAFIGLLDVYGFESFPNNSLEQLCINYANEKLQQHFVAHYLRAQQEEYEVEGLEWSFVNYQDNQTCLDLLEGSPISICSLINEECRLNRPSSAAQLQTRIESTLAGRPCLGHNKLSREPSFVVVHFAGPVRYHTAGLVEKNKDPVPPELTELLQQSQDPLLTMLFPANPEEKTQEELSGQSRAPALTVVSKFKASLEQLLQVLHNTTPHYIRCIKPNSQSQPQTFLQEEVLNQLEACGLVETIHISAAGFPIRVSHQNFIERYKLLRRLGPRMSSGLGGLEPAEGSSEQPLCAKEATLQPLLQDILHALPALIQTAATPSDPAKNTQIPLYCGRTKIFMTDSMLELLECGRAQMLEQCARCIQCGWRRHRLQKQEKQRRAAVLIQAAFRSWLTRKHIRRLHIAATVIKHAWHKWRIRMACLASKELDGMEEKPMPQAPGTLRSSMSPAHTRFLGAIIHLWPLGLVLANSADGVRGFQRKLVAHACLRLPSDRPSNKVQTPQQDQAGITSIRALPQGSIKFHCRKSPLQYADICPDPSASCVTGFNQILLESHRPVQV
UniProt Q5Y5T1: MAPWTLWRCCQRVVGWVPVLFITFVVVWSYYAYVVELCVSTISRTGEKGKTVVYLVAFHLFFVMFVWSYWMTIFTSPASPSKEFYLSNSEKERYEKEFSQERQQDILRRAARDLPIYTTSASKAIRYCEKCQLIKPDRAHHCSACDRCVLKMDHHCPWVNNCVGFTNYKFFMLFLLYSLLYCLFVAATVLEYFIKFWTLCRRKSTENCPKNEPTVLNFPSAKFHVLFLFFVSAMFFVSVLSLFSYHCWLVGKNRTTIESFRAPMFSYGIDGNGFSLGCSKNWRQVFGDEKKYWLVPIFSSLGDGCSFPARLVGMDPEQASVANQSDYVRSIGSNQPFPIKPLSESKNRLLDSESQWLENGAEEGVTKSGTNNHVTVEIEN
UniProt Q60520: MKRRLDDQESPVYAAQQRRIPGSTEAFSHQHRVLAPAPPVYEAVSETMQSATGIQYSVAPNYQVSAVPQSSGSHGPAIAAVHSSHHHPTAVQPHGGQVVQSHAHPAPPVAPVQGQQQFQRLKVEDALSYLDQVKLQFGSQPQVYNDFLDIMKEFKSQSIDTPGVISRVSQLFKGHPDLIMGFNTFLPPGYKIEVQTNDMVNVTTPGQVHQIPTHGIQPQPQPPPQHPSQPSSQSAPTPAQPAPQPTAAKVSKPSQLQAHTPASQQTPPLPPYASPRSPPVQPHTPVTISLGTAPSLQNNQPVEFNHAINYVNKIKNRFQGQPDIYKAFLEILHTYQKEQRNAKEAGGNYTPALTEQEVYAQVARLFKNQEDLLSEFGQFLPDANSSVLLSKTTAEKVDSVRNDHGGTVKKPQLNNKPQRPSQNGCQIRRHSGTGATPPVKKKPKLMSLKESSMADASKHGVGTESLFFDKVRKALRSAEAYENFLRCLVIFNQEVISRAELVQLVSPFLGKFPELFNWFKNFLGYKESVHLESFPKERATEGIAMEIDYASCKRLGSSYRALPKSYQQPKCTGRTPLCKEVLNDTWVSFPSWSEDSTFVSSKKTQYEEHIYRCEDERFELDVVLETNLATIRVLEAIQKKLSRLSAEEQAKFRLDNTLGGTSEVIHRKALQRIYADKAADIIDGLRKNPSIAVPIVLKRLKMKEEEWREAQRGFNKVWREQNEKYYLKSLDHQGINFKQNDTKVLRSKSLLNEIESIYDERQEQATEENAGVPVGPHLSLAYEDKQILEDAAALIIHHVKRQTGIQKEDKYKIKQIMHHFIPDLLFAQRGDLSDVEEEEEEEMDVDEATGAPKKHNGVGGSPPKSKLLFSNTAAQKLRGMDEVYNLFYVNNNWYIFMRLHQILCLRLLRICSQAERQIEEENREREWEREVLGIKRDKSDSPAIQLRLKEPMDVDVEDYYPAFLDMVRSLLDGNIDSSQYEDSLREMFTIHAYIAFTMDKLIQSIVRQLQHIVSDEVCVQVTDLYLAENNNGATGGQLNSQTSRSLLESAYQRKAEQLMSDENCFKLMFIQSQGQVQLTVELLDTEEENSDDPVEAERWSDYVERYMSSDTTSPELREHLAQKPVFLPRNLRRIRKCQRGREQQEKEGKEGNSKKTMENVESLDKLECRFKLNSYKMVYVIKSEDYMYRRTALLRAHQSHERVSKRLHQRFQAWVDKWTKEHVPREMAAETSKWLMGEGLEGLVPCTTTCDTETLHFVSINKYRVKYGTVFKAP
UniProt Q61147: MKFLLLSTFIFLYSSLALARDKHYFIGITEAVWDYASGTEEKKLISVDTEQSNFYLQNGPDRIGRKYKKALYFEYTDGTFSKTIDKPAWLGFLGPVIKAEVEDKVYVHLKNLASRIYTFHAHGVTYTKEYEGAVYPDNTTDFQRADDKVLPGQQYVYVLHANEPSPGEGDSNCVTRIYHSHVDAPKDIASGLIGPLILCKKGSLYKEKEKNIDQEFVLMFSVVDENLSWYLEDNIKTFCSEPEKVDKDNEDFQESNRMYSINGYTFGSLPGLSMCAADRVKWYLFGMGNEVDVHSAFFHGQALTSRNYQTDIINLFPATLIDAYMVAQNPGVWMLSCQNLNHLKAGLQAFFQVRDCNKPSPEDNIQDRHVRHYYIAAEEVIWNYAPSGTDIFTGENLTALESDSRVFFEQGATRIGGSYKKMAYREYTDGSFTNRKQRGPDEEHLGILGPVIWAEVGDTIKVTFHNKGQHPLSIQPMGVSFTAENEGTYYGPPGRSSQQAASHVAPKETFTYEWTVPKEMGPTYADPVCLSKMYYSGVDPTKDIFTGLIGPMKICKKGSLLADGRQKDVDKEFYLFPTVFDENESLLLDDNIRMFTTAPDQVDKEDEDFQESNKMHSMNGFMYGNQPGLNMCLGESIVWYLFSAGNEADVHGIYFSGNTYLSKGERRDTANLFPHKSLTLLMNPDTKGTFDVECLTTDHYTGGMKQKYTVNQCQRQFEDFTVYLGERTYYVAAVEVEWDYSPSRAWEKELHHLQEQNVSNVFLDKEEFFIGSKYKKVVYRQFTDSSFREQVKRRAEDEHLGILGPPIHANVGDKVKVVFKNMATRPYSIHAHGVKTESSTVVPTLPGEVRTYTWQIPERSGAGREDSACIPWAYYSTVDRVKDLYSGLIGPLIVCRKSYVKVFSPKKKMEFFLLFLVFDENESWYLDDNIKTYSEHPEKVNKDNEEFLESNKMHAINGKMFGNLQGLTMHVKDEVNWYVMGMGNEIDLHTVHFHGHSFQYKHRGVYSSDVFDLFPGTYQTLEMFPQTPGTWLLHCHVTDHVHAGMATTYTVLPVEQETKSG

Some of the results follow. Most entries show no effect beyond the scatter of the controls.

Compound in this test: CN[C@@H]1C[C@H]2O[C@@](C)([C@@H]1OC)n1c3ccccc3c3c4c(c5c6ccccc6n2c5c31)C(=O)NC4 [staurosporine]
Nature of the test: log2 fold change of tryptic peptide abundance, ligand vs vehicle (limited proteolysis) (log2 ratio); higher = more trypsin-susceptible (destabilized). Particulars: ligand concentration: 20 uM; sample: mouse liver crude lysate; replicate design: treated separately.
“UniProt Q5SV80 (peptide sequence: CIQCGWR, peptide start residue: 767)”: the log2 fold change came out at 0.391.
“UniProt Q5Y5T1 (peptide sequence: SIGSNQPFPIKPLSESK, peptide start residue: 330)”: the log2 fold change was found to be 0.323.
The same measure for “UniProt Q60520 (peptide sequence: SDSPAIQLR, peptide start residue: 939)”: -0.318; for “UniProt Q61147 (peptide sequence: QFTDSSFR, peptide start residue: 781)”: -0.216.
